PMC10365314, “Noncanonical contribution of microglial transcription factor NR4A1 to post-stroke recovery through TNF mRNA destabilization”
These are yes or no findings as the source states them, for the method shown. In cells and extracts the contact can be indirect. Some entries that bind do so weakly or less than the wild type.

Amino acid sequences for entries named in this document (tags omitted).
UniProt P12813: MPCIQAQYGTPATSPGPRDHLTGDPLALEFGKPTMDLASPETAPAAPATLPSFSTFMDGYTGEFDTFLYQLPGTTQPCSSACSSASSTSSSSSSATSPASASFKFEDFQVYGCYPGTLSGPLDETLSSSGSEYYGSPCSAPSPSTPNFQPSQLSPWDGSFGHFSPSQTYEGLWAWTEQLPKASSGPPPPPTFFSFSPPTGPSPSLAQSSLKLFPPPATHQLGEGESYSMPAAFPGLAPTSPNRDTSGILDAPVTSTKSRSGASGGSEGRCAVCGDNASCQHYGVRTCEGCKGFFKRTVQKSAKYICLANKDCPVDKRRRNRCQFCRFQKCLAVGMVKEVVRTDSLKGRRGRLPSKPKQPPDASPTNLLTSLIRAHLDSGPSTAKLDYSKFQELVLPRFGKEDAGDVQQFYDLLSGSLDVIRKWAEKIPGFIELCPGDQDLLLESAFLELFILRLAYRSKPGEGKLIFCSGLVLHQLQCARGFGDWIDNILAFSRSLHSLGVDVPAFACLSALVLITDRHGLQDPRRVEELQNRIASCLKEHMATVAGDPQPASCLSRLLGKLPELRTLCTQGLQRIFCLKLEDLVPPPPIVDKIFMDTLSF

Columns and labels:
[1] = target: NR4A1 (mouse (endogenous in primary microglia)) (UniProt P12813); test: proximity ligation; Duolink in situ PLA on fixed, permeabilised primary microglia, unstimulated or ATP+LPS-treated; anti-NR4A1 and anti-DCP1A primary antibodies
FLAG-NR4A1 = FLAG-NR4A1 (UniProt P12813); test: co-IP; lysates of BV2 cells expressing FLAG-NR4A1, with or without ATP+LPS; anti-FLAG antibody or rabbit IgG, Protein G agarose; lysis buffer 25 mM Tris-HCl pH 7.4, 150 mM NaCl, 1 mM EDTA, 1% NP40, 5% glycerol; immunoblot for DCP1A

- binding [1]: binds
- binding (FLAG-NR4A1): binds
B1: DCP1A (protein, UniProt Q91YD3 1-602)
chain: MALSCSTVRPRRRGSALRSKMELLSRAEQEMSLAALKQHDPYITSIADLTGQVALYTFCPKANQWEKTDIEGTLFVYRRSASPYHGFTIVNRLNMHNLVEPVNKDLEFQLHEPFLLYRNASLSIYSIWFYDKNDCHRIAKLMADVVEEETRRSQQAARDKQSPSQANGCSDQRPIDILEMLSRAKDEYERNQMGGSNISSPGLQPSTQLSNLGSTETLEETPSGSQDKSAPSGHKHLTVEELFGTSLPKEQPTAMGLESEDTDKLLGDASQKEPSSFLPFPFEQSGGAPQSENLGIHSAAHHTVQPEVSTPVLITPASIAQSGDKHPPSYTLPLSPVLSPTLPAEAPTTQVPHLPRNSTMIQAVKTTPRQKSPLLNQPVPELSHSSLVASQSPFRAPVSLANPAGTALPSVDLLQKLRLTPQHDQIQAQPLGKGTMAPSFSSAAGQLATPESFIEPSSKTAAARAAVSASLSNMVLAPTLQSMQQNQDPEVFSQPKVLPSAIPIAGSPLVPATTTAVSSVLLSPSVFQQTVPRAADLERKASSPSPLTVGTAESQRKPSIILSKSQLQDTLIHLIKNDSSFLSTLHAVYLQVLTKNKDNHNL
